Experimental data: PubChem BioAssay AID743121 (NCATS, 2013)
Here is an unselected part of about 26,000 deposited reagents. 167 of them (0.63%) were called active. 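Calls are per gene from RSA p-values that are not deposited; an individual active-marked siRNA can sensitise only weakly.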 Further read-outs or replicates are left out here.

- Purpose: 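Knock-downs that sensitise breast cancer cells to camptothecin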 (primary screen)
- Cell system: MDA-MB-231 cells, a human breast cancer line
- Reagent: single siRNA against human genes, 20 nM siRNA (0.8 pmol per well)
- Time to read-out: 120 h (drug added 48 h after transfection, read 72 h later)
- Treatment: camptothecin 20 nM (about EC30) for 72 h; vehicle 0.1% DMSO in parallel plates
- Measured: 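Cell viability by ATP luminescence (CellTiter-Glo) as % of non-targeting siRNA wells, and the log2 ratio of viability without drug over viability with camptothecin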
- Reading the numbers: log2 vehicle/camptothecin viability: higher = stronger sensitisation to camptothecin
- Rule for the call: 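Each gene scored by redundant siRNA activity (RSA) over its individual siRNA ratios; a gene is called active at p < 0.001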

no.	gene knocked down	PubChem SID	log2 vehicle/camptothecin viability	Outcome
1	RARB (retinoic acid receptor beta)	SID164384700	-0.548	inactive
2	RARB (retinoic acid receptor beta)	SID164384701	-0.369	inactive
3	RARB (retinoic acid receptor beta)	SID164384702	-0.217	inactive
4	RARB (retinoic acid receptor beta)	SID164384703	-0.0209	inactive
5	IGFBP5 (insulin like growth factor binding protein 5)	SID164371048	0.29	inactive
6	IGFBP5 (insulin like growth factor binding protein 5)	SID164371049	-0.0564	inactive
7	IGFBP5 (insulin like growth factor binding protein 5)	SID164371051	0.15	inactive
8	IGFBP5 (insulin like growth factor binding protein 5)	SID164371052	-0.365	inactive
9	IL21R (interleukin 21 receptor)	SID164470045	-0.282	inactive
10	IL21R (interleukin 21 receptor)	SID164470047	0.296	inactive
11	IL21R (interleukin 21 receptor)	SID164470048	0.201	inactive
12	IL21R (interleukin 21 receptor)	SID164470049	-0.0941	inactive
13	AGXT (alanine--glyoxylate aminotransferase)	SID164352813	0.00101	inactive
14	AGXT (alanine--glyoxylate aminotransferase)	SID164352815	0.162	inactive
15	AGXT (alanine--glyoxylate aminotransferase)	SID164352818	1.63	inactive
16	AGXT (alanine--glyoxylate aminotransferase)	SID164352819	0.107	inactive
17	WIF1 (Wnt inhibitory factor 1)	SID164416258	0.191	inactive
18	WIF1 (Wnt inhibitory factor 1)	SID164416259	-0.198	inactive
19	WIF1 (Wnt inhibitory factor 1)	SID164416260	0.149	inactive
20	WIF1 (Wnt inhibitory factor 1)	SID164416262	-0.19	inactive
21	OVCH2 (ovochymase 2)	SID164658654	0.29	inactive
22	OVCH2 (ovochymase 2)	SID164658656	-0.441	inactive
23	OVCH2 (ovochymase 2)	SID164658657	-0.106	inactive
24	OVCH2 (ovochymase 2)	SID164658658	0.29	inactive
25	ABCC9 (ATP binding cassette subfamily C member 9)	SID164408393	0.0729	inactive
26	ABCC9 (ATP binding cassette subfamily C member 9)	SID164408394	0.17	inactive
27	ABCC9 (ATP binding cassette subfamily C member 9)	SID164408395	-0.381	inactive
28	ABCC9 (ATP binding cassette subfamily C member 9)	SID164408396	-0.133	inactive
29	CCL3 (C-C motif chemokine ligand 3)	SID164387273	-0.084	inactive
30	CCL3 (C-C motif chemokine ligand 3)	SID164687048	-0.00146	inactive
31	CCL3 (C-C motif chemokine ligand 3)	SID164687050	0.946	inactive
32	CCL3 (C-C motif chemokine ligand 3)	SID164687051	0.31	inactive
33	CCL3 (C-C motif chemokine ligand 3)	SID174316041	0.00347	inactive
34	RPS27A (ribosomal protein S27a)	SID164386559	-0.548	inactive
35	RPS27A (ribosomal protein S27a)	SID164386560	-0.628	inactive
36	RPS27A (ribosomal protein S27a)	SID164386562	-0.574	inactive
37	RPS27A (ribosomal protein S27a)	SID164386563	-1.05	inactive
38	DTNBP1 (dystrobrevin binding protein 1)	SID164542825	0.00555	inactive
39	DTNBP1 (dystrobrevin binding protein 1)	SID164542826	-0.562	inactive
40	DTNBP1 (dystrobrevin binding protein 1)	SID164542827	-0.443	inactive
41	DTNBP1 (dystrobrevin binding protein 1)	SID164542828	-0.0892	inactive
42	POLR2C (RNA polymerase II subunit C)	SID164381637	-0.398	inactive
43	POLR2C (RNA polymerase II subunit C)	SID164381638	-0.279	inactive
44	POLR2C (RNA polymerase II subunit C)	SID164381639	-0.412	inactive
45	POLR2C (RNA polymerase II subunit C)	SID164381641	-0.466	inactive
46	CCL28 (C-C motif chemokine ligand 28)	SID164490209	-0.0102	inactive
47	CCL28 (C-C motif chemokine ligand 28)	SID164490212	-0.414	inactive
48	CCL28 (C-C motif chemokine ligand 28)	SID164490213	-0.0458	inactive
49	MYO18A (myosin XVIIIA)	SID164402489	-0.0758	inactive
50	MYO18A (myosin XVIIIA)	SID164402490	0.132	inactive
51	MYO18A (myosin XVIIIA)	SID164402492	-0.0853	inactive
52	JADE1 (jade family PHD finger 1)	SID164534477	-0.415	inactive
53	JADE1 (jade family PHD finger 1)	SID164534481	-0.018	inactive
54	JADE1 (jade family PHD finger 1)	SID164534483	0.809	inactive
55	JADE1 (jade family PHD finger 1)	SID164534485	0.54	inactive
56	ATP6V1C1 (ATPase H+ transporting V1 subunit C1)	SID164354768	0.633	inactive
57	ATP6V1C1 (ATPase H+ transporting V1 subunit C1)	SID164354769	-0.263	inactive
58	ATP6V1C1 (ATPase H+ transporting V1 subunit C1)	SID164354773	-0.467	inactive
59	CX3CR1 (C-X3-C motif chemokine receptor 1)	SID164360571	0.196	inactive
60	CX3CR1 (C-X3-C motif chemokine receptor 1)	SID164360572	-0.0498	inactive
61	CX3CR1 (C-X3-C motif chemokine receptor 1)	SID164360573	-0.206	inactive
62	CX3CR1 (C-X3-C motif chemokine receptor 1)	SID164360574	-0.267	inactive
63	ADRB2 (adrenoceptor beta 2)	SID164352591	0.0305	inactive
64	ADRB2 (adrenoceptor beta 2)	SID164352593	0.0505	inactive
65	ADRB2 (adrenoceptor beta 2)	SID164352595	-0.101	inactive
66	ADRB2 (adrenoceptor beta 2)	SID164352597	-0.525	inactive
67	F11R (F11 receptor)	SID164470805	0.157	inactive
68	F11R (F11 receptor)	SID164470807	-0.0573	inactive
69	F11R (F11 receptor)	SID164470811	-1.04	inactive
70	F11R (F11 receptor)	SID164470814	-0.322	inactive
